{
  "source": "patent US6727268B2",
  "about": "“2-thioxothiazole derivative, method for preparing the same, and pharmaceutical composition containing the same” (CJ Corp., priority 2002, dated 2004)",
  "target": "T1, COX-2 (Mus musculus, UniProt Q05769)",
  "T1 construct": "host or cells: RAW 264.7 cells, pre-treated with aspirin and induced with interferon and LPS",
  "T1 sequence (Q05769 18-604)": "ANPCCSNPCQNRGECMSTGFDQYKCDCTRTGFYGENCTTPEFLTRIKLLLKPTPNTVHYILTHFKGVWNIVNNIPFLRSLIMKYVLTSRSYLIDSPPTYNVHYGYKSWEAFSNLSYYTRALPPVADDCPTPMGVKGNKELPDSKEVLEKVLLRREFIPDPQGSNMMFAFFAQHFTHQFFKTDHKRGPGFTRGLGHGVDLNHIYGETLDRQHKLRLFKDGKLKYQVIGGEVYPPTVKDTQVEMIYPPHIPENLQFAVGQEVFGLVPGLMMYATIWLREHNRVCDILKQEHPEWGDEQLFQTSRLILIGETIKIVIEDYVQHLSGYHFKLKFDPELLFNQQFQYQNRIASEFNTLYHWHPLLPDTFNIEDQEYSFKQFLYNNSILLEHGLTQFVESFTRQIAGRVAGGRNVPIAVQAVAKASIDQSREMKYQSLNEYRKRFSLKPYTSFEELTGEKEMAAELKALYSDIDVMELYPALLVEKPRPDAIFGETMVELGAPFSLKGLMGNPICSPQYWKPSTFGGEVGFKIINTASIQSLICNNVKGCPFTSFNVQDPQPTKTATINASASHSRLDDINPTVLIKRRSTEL",
  "experiment": "Assay for the COX-2 inhibitory activity using RAW 264.7 cell line (PGE2, EIA)",
  "assay_type": "cell-based",
  "settings": "for COX-2 inhibitory activities compared with the reference: 10 nM, RAW 264.7 cells, reference Valdecoxib; for inhibition (%) ratios of COX-2 to COX-1 compared with the reference Valdecoxib: COX-2 at 10 nM vs COX-1 at 1 μM",
  "protocol": "Each well was treated with 250 μM of aspirin and incubated at 37° C. for 2 hours. After the culture media were replaced with new culture media, the new culture media were treated with a test compound (10 nM) and incubated for 30 minutes. Then, each well was treated with interferon ? (100 units/ml) and lipopolysaccharide (LPS, 100 ng/ml) and incubated for 18 hours. The culture media were transferred to other test tubes. The concentration of PGE2 was quantified by means of the EIA kit (Cayman Chemicals).\nThe percentages of the COX inhibition were calculated according to the following equation: [formula]",
  "note": "Some entries share one result that the patent states for a list of compounds. At least one structure is not confirmed: it was looked up by name or label, or the drawing left a doubt.",
  "data": [
    {"smiles": "NS(=O)(=O)c1ccc(-n2c(-c3ccccc3)csc2=S)cc1", "note": "[Example 1, 4-(4-phenyl-2-thioxothiazole-3-yl)benzenesulfonamide]", "values": [
      {"measurement": "COX-2 inhibitory activities compared with the reference", "result": "significantly higher than the reference"},
      {"measurement": "inhibition (%) ratios of COX-2 to COX-1 compared with the reference Valdecoxib", "result": "equal to or significantly higher than that in the reference"}
    ]},
    {"smiles": "Cc1sc(=S)n(-c2ccc(S(N)(=O)=O)cc2)c1-c1ccccc1", "note": "[Example 2, 4-(5-methyl-4-phenyl-2-thioxothiazole-3-yl)benzenesulfonamide]", "values": [
      {"measurement": "COX-2 inhibitory activities compared with the reference", "result": "significantly higher than the reference"},
      {"measurement": "inhibition (%) ratios of COX-2 to COX-1 compared with the reference Valdecoxib", "result": "equal to or significantly higher than that in the reference"}
    ]},
    {"smiles": "CS(=O)(=O)c1ccc(-c2csc(=S)n2-c2ccc(S(N)(=O)=O)cc2)cc1", "note": "[Example 3, 4-[4-(4-methanesulfonylphenyl)-2-thioxothiazole-3-yl]benzenesulfo namide]", "values": [
      {"measurement": "COX-2 inhibitory activities compared with the reference", "result": "significantly higher than the reference"},
      {"measurement": "inhibition (%) ratios of COX-2 to COX-1 compared with the reference Valdecoxib", "result": "equal to or significantly higher than that in the reference"}
    ]},
    {"smiles": "NS(=O)(=O)c1ccc(-n2c(-c3ccc(F)cc3)csc2=S)cc1", "note": "[Example 4, 4-[4-(4-fluorophenyl)-2-thioxothiazole-3-yl]benzenesulfonamide]", "values": [
      {"measurement": "COX-2 inhibitory activities compared with the reference", "result": "significantly higher than the reference"},
      {"measurement": "inhibition (%) ratios of COX-2 to COX-1 compared with the reference Valdecoxib", "result": "equal to or significantly higher than that in the reference"}
    ]},
    {"smiles": "NS(=O)(=O)c1ccc(-n2c(-c3cccc([N+](=O)[O-])c3)csc2=S)cc1", "note": "[Example 5, 4-[4-(3-nitrophenyl)-2-thioxothiazole-3-yl]benzenesulfonamide]", "values": [
      {"measurement": "COX-2 inhibitory activities compared with the reference", "result": "significantly higher than the reference"},
      {"measurement": "inhibition (%) ratios of COX-2 to COX-1 compared with the reference Valdecoxib", "result": "equal to or significantly higher than that in the reference"}
    ]},
    {"smiles": "NS(=O)(=O)c1ccc(-n2c(-c3ccc(Cl)cc3)csc2=S)cc1", "note": "[Example 6, 4-[4-(4-chlorophenyl)-2-thioxothiazole-3-yl]benzenesulfonamide]", "values": [
      {"measurement": "COX-2 inhibitory activities compared with the reference", "result": "significantly higher than the reference"},
      {"measurement": "inhibition (%) ratios of COX-2 to COX-1 compared with the reference Valdecoxib", "result": "equal to or significantly higher than that in the reference"}
    ]}
  ]
}
